Source: paper PMC3433310
These are yes or no findings as the source states them, for the method shown. Binding seen in cells or lysates may run through a third protein. Some results given as binding are weak or reduced against the parent protein; the word gives no strength.

Sequences of proteins named here, by UniProt entry; tags and fusion partners are left off. Residues count along the entry.
UniProt P00367, residues 54-558: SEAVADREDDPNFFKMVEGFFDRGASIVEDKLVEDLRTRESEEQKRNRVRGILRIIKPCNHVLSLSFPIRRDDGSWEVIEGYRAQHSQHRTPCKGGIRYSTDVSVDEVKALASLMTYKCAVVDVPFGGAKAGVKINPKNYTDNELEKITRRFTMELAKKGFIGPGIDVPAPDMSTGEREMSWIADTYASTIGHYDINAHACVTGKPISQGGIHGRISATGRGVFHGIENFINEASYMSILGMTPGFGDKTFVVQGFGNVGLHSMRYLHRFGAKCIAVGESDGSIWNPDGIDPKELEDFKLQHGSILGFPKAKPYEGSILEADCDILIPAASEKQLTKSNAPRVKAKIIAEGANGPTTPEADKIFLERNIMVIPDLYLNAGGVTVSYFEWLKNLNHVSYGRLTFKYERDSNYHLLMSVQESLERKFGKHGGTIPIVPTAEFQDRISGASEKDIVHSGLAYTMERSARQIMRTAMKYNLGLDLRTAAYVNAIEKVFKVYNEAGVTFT

Biological target: glutamate dehydrogenase (GDH) (human (endogenous in lymphoblasts)) (UniProt P00367)
Test: co-IP; GDH immunoprecipitated from 300 ug lymphoblast mitochondrial lysate with 1 ug rabbit polyclonal GDH antibody and protein A sepharose; blot probed with mouse monoclonal antibody to HADH

binding: binds
B1: 3-hydroxyacyl-CoA dehydrogenase (HADH) (enzyme, UniProt Q16836 13-314)
chain: SSSSTASASAKKIIVKHVTVIGGGLMGAGIAQVAAATGHTVVLVDQTEDILAKSKKGIEESLRKVAKKKFAENLKAGDEFVEKTLSTIATSTDAASVVHSTDLVVEAIVENLKVKNELFKRLDKFAAEHTIFASNTSSLQITSIANATTRQDRFAGLHFFNPVPVMKLVEVIKTPMTSQKTFESLVDFSKALGKHPVSCKDTPGFIVNRLLVPYLMEAIRLYERGDASKEDIDTAMKLGAGYPMGPFELLDYVGLDTTKFIVDGWHEMDAENPLHQPSPSLNKLVAENKFGKKTGEGFYKYK
